Measured values taken from publication PMC11442824.
Results are given in words; binding and its absence hold for the method and conditions named. In cells and extracts the contact can be indirect. A result given as binding can be weak or reduced; the word gives no strength.

Key:
[1] = target: AMPKα (human (endogenous in a human podocyte cell line)); test: proximity ligation; Duolink in situ PLA on fixed, permeabilised podocytes with anti-TRIM56 and anti-AMPKα; cells under low glucose, high glucose, or high glucose with PVT1 ASO
[2] = target: AMPKα (human (endogenous in a human podocyte cell line)); test: co-IP; endogenous TRIM56 and AMPKα in lysate of cultured human podocytes; immunoprecipitation and immunoblotting; which protein was precipitated is not given

B1: tripartite motif (TRIM) 56 (protein, UniProt Q9BRZ2-1 1-755)
chain: MVSHGSSPSLLEALSSDFLACKICLEQLRAPKTLPCLHTYCQDCLAQLADGGRVRCPECRETVPVPPEGVASFKTNFFVNGLLDLVKARACGDLRAGKPACALCPLVGGTSTGGPATARCLDCADDLCQACADGHRCTRQTHTHRVVDLVGYRAGWYDEEARERQAAQCPQHPGEALRFLCQPCSQLLCRECRLDPHLDHPCLPLAEAVRARRPGLEGLLAGVDNNLVELEAARRVEKEALARLREQAARVGTQVEEAAEGVLRALLAQKQEVLGQLRAHVEAAEEAARERLAELEGREQVARAAAAFARRVLSLGREAEILSLEGAIAQRLRQLQGCPWAPGPAPCLLPQLELHPGLLDKNCHLLRLSFEEQQPQKDGGKDGAGTQGGEESQSRREDEPKTERQGGVQPQAGDGAQTPKEEKAQTTREEGAQTLEEDRAQTPHEDGGPQPHRGGRPNKKKKFKGRLKSISREPSPALGPNLDGSGLLPRPIFYCSFPTRMPGDKRSPRITGLCPFGPREILVADEQNRALKRFSLNGDYKGTVPVPEGCSPCSVAALQSAVAFSASARLYLINPNGEVQWRRALSLSQASHAVAALPSGDRVAVSVAGHVEVYNMEGSLATRFIPGGKASRGLRALVFLTTSPQGHFVGSDWQQNSVVICDGLGQVVGEYKGPGLHGCQPGSVSVDKKGYIFLTLREVNKVVILDPKGSLLGDFLTAYHGLEKPRVTTMVDGRYLVVSLSNGTIHIFRVRSPDS
- binding [1]: binds
- binding [2]: binds
